Laboratory results as given in the supplement of paper PMC7661543.
± gives the standard deviation of the averaged measurements. The effect of the compound repeats well; differences between the knockouts mostly do not.

Test system: BT-20
Assay: relative cell number vs DMSO control (72 h) (% of DMSO); higher = less growth inhibition (more cells)
Experimental: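 QMAP-Seq: a pool of 5 breast cancer cell lines (ZR-75-1, SKBR3, HCC-38, MDA-MB-231, BT-20), each carrying 12 doxycycline-inducible Cas9 sgRNA perturbations (11 knockouts plus non-targeting sgNT), was treated with compounds for 72 h at four 10-fold doses (10 nM-10 uM or 1 nM-1 uM range). Barcodes were amplified and sequenced, and cell number was interpolated from 293T spike-in standard curves. The result is expressed as % of the median of DMSO wells. Two biological replicates.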

CC(=O)Nc1nc(C)c(-c2ccc(Cl)c(S(=O)(=O)NCCO)c2)s1 [PIK93]
Details	relative cell number
sgRNA knockout: sgATF3, 10 nM	96.9 ± 2.4
sgRNA knockout: sgATF3, 100 nM	117 ± 3.2
sgRNA knockout: sgATF3, 1000 nM	82.5 ± 1
sgRNA knockout: sgATF3, 10000 nM	65 ± 8.1
sgRNA knockout: sgATF4, 10 nM	134 ± 6.7
sgRNA knockout: sgATF4, 100 nM	98.8 ± 23
sgRNA knockout: sgATF4, 1000 nM	79.7 ± 7
sgRNA knockout: sgATF4, 10000 nM	66.5 ± 2.4
sgRNA knockout: sgATF6, 10 nM	99.9 ± 20
sgRNA knockout: sgATF6, 100 nM	73.9 ± 24
sgRNA knockout: sgATF6, 1000 nM	93.4 ± 14
sgRNA knockout: sgATF6, 10000 nM	69.2 ± 1.8
sgRNA knockout: sgATG7, 10 nM	105 ± 1.3
sgRNA knockout: sgATG7, 100 nM	108 ± 11
sgRNA knockout: sgATG7, 1000 nM	89.5 ± 3.5
sgRNA knockout: sgATG7, 10000 nM	74.8 ± 19
sgRNA knockout: sgERN1, 10 nM	109 ± 22
sgRNA knockout: sgERN1, 100 nM	101 ± 9.1
sgRNA knockout: sgERN1, 1000 nM	92 ± 18
sgRNA knockout: sgERN1, 10000 nM	76.3 ± 9.8
sgRNA knockout: sgHSF1, 10 nM	115 ± 19
sgRNA knockout: sgHSF1, 100 nM	109 ± 9.9
sgRNA knockout: sgHSF1, 1000 nM	90 ± 2.1
sgRNA knockout: sgHSF1, 10000 nM	65.4 ± 8.5
sgRNA knockout: sgHSF2, 10 nM	104 ± 19
sgRNA knockout: sgHSF2, 100 nM	116 ± 24
sgRNA knockout: sgHSF2, 1000 nM	84.34 ± 0.43
sgRNA knockout: sgHSF2, 10000 nM	63.629 ± 0.036
sgRNA knockout: sgKEAP1, 10 nM	102 ± 6.3
sgRNA knockout: sgKEAP1, 100 nM	107 ± 8.9
sgRNA knockout: sgKEAP1, 1000 nM	86.1 ± 6.8
sgRNA knockout: sgKEAP1, 10000 nM	71.6 ± 6.8
sgRNA knockout: sgNFE2L2, 10 nM	99.2 ± 6.9
sgRNA knockout: sgNFE2L2, 100 nM	104 ± 36
sgRNA knockout: sgNFE2L2, 1000 nM	94.8 ± 10
sgRNA knockout: sgNFE2L2, 10000 nM	62.7 ± 15
sgRNA knockout: sgSLC35F2, 10 nM	100 ± 14
sgRNA knockout: sgSLC35F2, 100 nM	107 ± 33
sgRNA knockout: sgSLC35F2, 1000 nM	95.8 ± 5.2
sgRNA knockout: sgSLC35F2, 10000 nM	72.5 ± 1.2
sgRNA knockout: sgXBP1, 10 nM	112 ± 21
sgRNA knockout: sgXBP1, 100 nM	95.2 ± 19
sgRNA knockout: sgXBP1, 1000 nM	109.8 ± 0.41
sgRNA knockout: sgXBP1, 10000 nM	65.4 ± 8

CCC(C)SSc1ncc[nH]1 (configuration not stated) [PX12]
Details	relative cell number
sgRNA knockout: sgATF3, 10 nM	101 ± 6.7
sgRNA knockout: sgATF3, 100 nM	103 ± 15
sgRNA knockout: sgATF3, 1000 nM	94.5 ± 5.2
sgRNA knockout: sgATF3, 10000 nM	93.1 ± 7.3
sgRNA knockout: sgATF4, 10 nM	116 ± 9.7
sgRNA knockout: sgATF4, 100 nM	119 ± 15
sgRNA knockout: sgATF4, 1000 nM	104 ± 5.3
sgRNA knockout: sgATF4, 10000 nM	73 ± 10
sgRNA knockout: sgATF6, 10 nM	108 ± 5
sgRNA knockout: sgATF6, 100 nM	101 ± 11
sgRNA knockout: sgATF6, 1000 nM	87 ± 6.5
sgRNA knockout: sgATF6, 10000 nM	92.7 ± 15
sgRNA knockout: sgATG7, 10 nM	102 ± 7.5
sgRNA knockout: sgATG7, 100 nM	102 ± 16
sgRNA knockout: sgATG7, 1000 nM	110.2 ± 0.74
sgRNA knockout: sgATG7, 10000 nM	84.8 ± 5.7
sgRNA knockout: sgERN1, 10 nM	105 ± 13
sgRNA knockout: sgERN1, 100 nM	114 ± 12
sgRNA knockout: sgERN1, 1000 nM	77.5 ± 1.7
sgRNA knockout: sgERN1, 10000 nM	79.5 ± 4.2
sgRNA knockout: sgHSF1, 10 nM	112 ± 5
sgRNA knockout: sgHSF1, 100 nM	101 ± 12
sgRNA knockout: sgHSF1, 1000 nM	103 ± 12
sgRNA knockout: sgHSF1, 10000 nM	98.3 ± 4.2
sgRNA knockout: sgHSF2, 10 nM	99.2 ± 12
sgRNA knockout: sgHSF2, 100 nM	88.4 ± 15
sgRNA knockout: sgHSF2, 1000 nM	97.81 ± 0.42
sgRNA knockout: sgHSF2, 10000 nM	106 ± 11
sgRNA knockout: sgKEAP1, 10 nM	101 ± 25
sgRNA knockout: sgKEAP1, 100 nM	99.7 ± 1.6
sgRNA knockout: sgKEAP1, 1000 nM	88.2 ± 12
sgRNA knockout: sgKEAP1, 10000 nM	95.2 ± 6.9
sgRNA knockout: sgNFE2L2, 10 nM	123 ± 12
sgRNA knockout: sgNFE2L2, 100 nM	117 ± 22
sgRNA knockout: sgNFE2L2, 1000 nM	114 ± 6.1
sgRNA knockout: sgNFE2L2, 10000 nM	77.8 ± 11
sgRNA knockout: sgSLC35F2, 10 nM	106 ± 11
sgRNA knockout: sgSLC35F2, 100 nM	114 ± 17
sgRNA knockout: sgSLC35F2, 1000 nM	106.7 ± 0.39
sgRNA knockout: sgSLC35F2, 10000 nM	88.6 ± 2.6
sgRNA knockout: sgXBP1, 10 nM	112 ± 14
sgRNA knockout: sgXBP1, 100 nM	109 ± 6.7
sgRNA knockout: sgXBP1, 1000 nM	92.6 ± 0.41
sgRNA knockout: sgXBP1, 10000 nM	95.3 ± 8.5

Cc1ccc(Nc2nccc(N(C)c3ccc4c(C)n(C)nc4c3)n2)cc1S(N)(=O)=O [Pazopanib]
Details	relative cell number
sgRNA knockout: sgATF3, 10 nM	93 ± 6.3
sgRNA knockout: sgATF3, 100 nM	89.7 ± 6.8
sgRNA knockout: sgATF3, 1000 nM	95.6 ± 14
sgRNA knockout: sgATF3, 10000 nM	75.7 ± 9.1
sgRNA knockout: sgATF4, 10 nM	108 ± 4.9
sgRNA knockout: sgATF4, 100 nM	100 ± 16
sgRNA knockout: sgATF4, 1000 nM	88.9 ± 5.6
sgRNA knockout: sgATF4, 10000 nM	84 ± 20
sgRNA knockout: sgATF6, 10 nM	94.2 ± 12
sgRNA knockout: sgATF6, 100 nM	97.2 ± 11
sgRNA knockout: sgATF6, 1000 nM	106 ± 16
sgRNA knockout: sgATF6, 10000 nM	67.2 ± 12
sgRNA knockout: sgATG7, 10 nM	96.5 ± 6.5
sgRNA knockout: sgATG7, 100 nM	92.2 ± 20
sgRNA knockout: sgATG7, 1000 nM	87.6 ± 4
sgRNA knockout: sgATG7, 10000 nM	73.9 ± 3.6
sgRNA knockout: sgERN1, 10 nM	101 ± 5.2
sgRNA knockout: sgERN1, 100 nM	89.9 ± 15
sgRNA knockout: sgERN1, 1000 nM	94.84 ± 0.88
sgRNA knockout: sgERN1, 10000 nM	77.1 ± 4.2
sgRNA knockout: sgHSF1, 10 nM	106 ± 2.9
sgRNA knockout: sgHSF1, 100 nM	91.925 ± 0.048
sgRNA knockout: sgHSF1, 1000 nM	108 ± 16
sgRNA knockout: sgHSF1, 10000 nM	78.5 ± 19
sgRNA knockout: sgHSF2, 10 nM	96.6 ± 13
sgRNA knockout: sgHSF2, 100 nM	102 ± 14
sgRNA knockout: sgHSF2, 1000 nM	112 ± 3.4
sgRNA knockout: sgHSF2, 10000 nM	76.6 ± 11
sgRNA knockout: sgKEAP1, 10 nM	100 ± 4.6
sgRNA knockout: sgKEAP1, 100 nM	91.7 ± 16
sgRNA knockout: sgKEAP1, 1000 nM	102 ± 1.4
sgRNA knockout: sgKEAP1, 10000 nM	82.8 ± 11
sgRNA knockout: sgNFE2L2, 10 nM	84.4 ± 16
sgRNA knockout: sgNFE2L2, 100 nM	85.9 ± 3.5
sgRNA knockout: sgNFE2L2, 1000 nM	93 ± 16
sgRNA knockout: sgNFE2L2, 10000 nM	76.9 ± 19
sgRNA knockout: sgSLC35F2, 10 nM	104 ± 19
sgRNA knockout: sgSLC35F2, 100 nM	99.8 ± 14
sgRNA knockout: sgSLC35F2, 1000 nM	105 ± 14
sgRNA knockout: sgSLC35F2, 10000 nM	79.4 ± 20
sgRNA knockout: sgXBP1, 10 nM	103 ± 9.4
sgRNA knockout: sgXBP1, 100 nM	91.5 ± 6.2
sgRNA knockout: sgXBP1, 1000 nM	113 ± 6.6
sgRNA knockout: sgXBP1, 10000 nM	81.2 ± 6.6
